The other results are listed elsewhere or left out. Further columns of the screen follow, without active or inactive calls. Compounds called inactive in the main read-out are mostly missing here. Potencies come from curve fits of mixed quality, noted in brackets.
Test: qHTS Assay for Modulators of Lamin A Splicing
Details: HeLa LMNA splicing GFP/RFP minigene ratio, 48 h
How it was run: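 S3 HeLa stable clones carrying a lamin A-EGFP splicing minigene plus DsRed2 were seeded at 600 cells/well in Opti-MEM with 2% FBS, pin-dosed and incubated 48 h at 37°C. Acumen cytometry (488 nm) gave the GFP/RFP total-intensity ratio.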

[1] = measured here: GFP splicing reporter channel
[2] = measured here: RFP viability control channel

Which AC50 [1] does the source give for O=C1NN(c2ccccc2)C(=O)/C1=C/c1ccc(-c2ccc(Cl)c(C(=O)O)c2)o1 here?
The AC50 was 15.8 µM [rising, single point].

With O=C(N/N=C/c1ccccn1)c1ccc(NC(=O)c2cccc([N+](=O)[O-])c2)cc1 as the molecule, how does the AC50 [1] read?
Its AC50 is 11.2 µM [falling, partial curve].

And the AC50 [2]?
The AC50 was 11.2 µM [falling, partial curve].

Which AC50 [2] does the source give for Cc1ccccc1Oc1nc2c(C)cccn2c(=O)c1/C=C(\C#N)C(=O)Nc1c(C)n(C)n(-c2ccccc2)c1=O here?
Its AC50 is 20 µM [rising, partial curve, poor fit].

With CC(=O)c1c(C)[nH]c(C(=O)CN2C(=O)NC(C)(c3ccc(C)cc3)C2=O)c1C (stereo not given) as the molecule, how does the AC50 [1] read?
Its AC50 is 1.58 µM [falling, full curve, poor fit].

What about the AC50 [2] of the same molecule?
The AC50 was 1.78 µM [falling, full curve, poor fit].

For CCCCn1c(SCc2ccccc2C)nc2ccsc2c1=O, which AC50 [2] is on record?
Its AC50 is 35.5 µM [rising, single point].

For c1ccc(CN2CCC(Nc3nc(-c4cccs4)nc4ccccc34)CC2)cc1, which AC50 [1] is on record?
Its AC50 is 11.2 µM [falling, partial curve].

And the AC50 [2]?
The AC50 was 35.5 µM [falling, single point].

With O=C(COC(=O)c1ccccc1)NCc1cccs1 as the molecule, how does the AC50 [2] read?
Its AC50 is 2 µM [rising, full curve, poor fit].

With Cc1ccc(NC(=S)NC(NC(=O)N(C)C)C(Cl)(Cl)Cl)cc1 (stereo not given) as the molecule, how does the AC50 [2] read?
Its AC50 is 0.141 µM [rising, full curve, poor fit].

For CC(C)(C)NC(=O)NC(=O)CN1CCN(c2ncc(C(F)(F)F)cc2Cl)CC1, which AC50 [2] is on record?
Its AC50 is 20 µM [rising, single point].

With Cc1cccc(OCCSc2cc(C)nc(N)n2)c1 as the molecule, how does the AC50 [1] read?
The AC50 was 35.5 µM [rising, single point].

And the AC50 [2]?
Its AC50 is 35.5 µM [rising, single point].

For COc1ccc(CNC(=O)CC(C)CC2=NS(=O)(=O)c3ccccc3N2)cc1 (stereo not given), which AC50 [2] is on record?
The AC50 was 4.47 µM [falling, full curve, poor fit].

For C=C(C)CNC(=S)Nc1cccc2cnccc12, which AC50 [2] is on record?
Its AC50 is 12.6 µM [rising, partial curve].

With COc1ccc(NC(=O)CCC(=O)NCCO)cc1 as the molecule, how does the AC50 [2] read?
Its AC50 is 8.91 µM [falling, partial curve].

Which AC50 [1] does the source give for CC(C)(C)OC(=O)N/N=C/c1cccc([N+](=O)[O-])c1 here?
Its AC50 is 0.0891 µM [falling, full curve, poor fit].

For CCN1CCN(C(=S)Nc2ccc(Cl)cc2)CC1, which AC50 [1] is on record?
The AC50 was 14.1 µM [rising, partial curve, poor fit].

And the AC50 [2]?
Its AC50 is 12.6 µM [rising, partial curve].

What does the source list for CSC1=C(C#N)C(C)C2=C(CC(C)(C)CC2=O)N1 (stereo not given)?
AC50 [1]: 31.6 µM [rising, single point]; AC50 [2]: 35.5 µM [rising, single point]

What does the source list for Cc1cccc(Nc2nnc(SCc3cn4ccsc4n3)s2)c1?
AC50 [1]: 35.5 µM [rising, single point]; AC50 [2]: 31.6 µM [rising, single point]

Which AC50 [2] does the source give for Cc1ccc(-c2noc(CN(C)C(=O)Nc3ccc(F)cc3)n2)cc1 here?
Its AC50 is 0.0447 µM [rising, full curve, poor fit].

What does the source list for Cc1cccc(COCC(Cc2ccccc2)N2CCN(C(=O)c3cccc(Cl)c3)CCC2=O)c1 (stereo not given)?
AC50 [1]: 14.1 µM [rising, partial curve]; AC50 [2]: 15.8 µM [rising, partial curve]

What does the source list for O=S(=O)(NC1CCCCC1Oc1ccccc1)c1ccc(Cl)cc1 (stereo not given)?
AC50 [1]: 12.6 µM [rising, partial curve, poor fit]; AC50 [2]: 25.1 µM [rising, single point]

Which AC50 [2] does the source give for O=C(CSc1ccc2ccccc2n1)N1CCC(c2noc3ccc(F)cc23)CC1 here?
Its AC50 is 14.1 µM [rising, single point].

Which AC50 [1] does the source give for COc1ccc(S(=O)(=O)NCC2CCCN(CC(C)(C)C)C2)cc1 (stereo not given) here?
Its AC50 is 35.5 µM [rising, single point].

For O=C(O)CC/C(=N\Nc1ccc([N+](=O)[O-])cc1)c1ccccc1, which AC50 [2] is on record?
The AC50 was 0.251 µM [falling, full curve, poor fit].

For CCOC(=O)c1cc(-c2ccccc2)sc1NC(=O)CC, which AC50 [2] is on record?
Its AC50 is 7.94 µM [rising, partial curve, poor fit].

For C=CCS/C(=N\n1cnc2ccccc2c1=O)N1CCCCC1, which AC50 [2] is on record?
The AC50 was 15.8 µM [rising, single point].

Which AC50 [2] does the source give for O=C(N/N=C/c1cc([N+](=O)[O-])ccc1O)c1ccc2c(c1)OCCO2 here?
The AC50 was 5.62 µM [rising, partial curve].

Which AC50 [1] does the source give for CC1CCc2c(sc3nc(SCC(=O)NCc4ccco4)nc(N)c23)C1 (stereo not given) here?
The AC50 was 5.01 µM [rising, partial curve].

And the AC50 [2]?
Its AC50 is 12.6 µM [rising, partial curve].

For COc1ccc(OC)c(C2=Nn3c(nnc3-c3cccc(OC(C)C)c3)SC2)c1, which AC50 [2] is on record?
Its AC50 is 5.01 µM [rising, partial curve].

With CCn1cc(Br)c(C(=O)NC(=S)Nc2ccc(C(=O)OC)cc2)n1 as the molecule, how does the AC50 [2] read?
The AC50 was 0.00447 µM [falling, full curve, poor fit].

Which AC50 [1] does the source give for CC1CCc2nc(NC(=O)C3COc4ccccc4O3)sc2C1 (stereo not given) here?
The AC50 was 31.6 µM [rising, single point].

And the AC50 [2]?
The AC50 was 25.1 µM [rising, partial curve].

Which AC50 [1] does the source give for O=C(Nc1ccc(Oc2cccc3ccccc23)cc1)c1ccco1 here?
Its AC50 is 12.6 µM [rising, single point].

And the AC50 [2]?
Its AC50 is 11.2 µM [rising, single point].

Which results are given for Cc1nnc(SC(=O)N2c3ccccc3Sc3ccccc32)s1?
AC50 [1]: 35.5 µM [falling, single point]; AC50 [2]: 15.8 µM [falling, single point]

With Cc1nc(CNS(=O)(=O)c2ccc3c(c2)CCCC3)cs1 as the molecule, how does the AC50 [2] read?
Its AC50 is 17.8 µM [rising, partial curve].

For COc1cc2nc(=S)n(CCCN3CCOCC3)c(N)c2cc1OC, which AC50 [2] is on record?
The AC50 was 14.1 µM [falling, single point].

For CCCn1ccc2c(OCC(=O)Nc3ccccc3C(=O)OCC)cccc2c1=O, which AC50 [2] is on record?
The AC50 was 35.5 µM [falling, single point].

Which AC50 [1] does the source give for O=C(c1cc(N2C(=O)C3C4CCC(C4)C3C2=O)ccc1Cl)N1CCN(c2ccccc2)CC1 (stereo not given) here?
Its AC50 is 35.5 µM [rising, single point].

What about the AC50 [2] of the same molecule?
Its AC50 is 35.5 µM [rising, single point].
